PubChem BioAssay AID720505, Drosophila RNAi Screening Center | 2013
The screen tested about 20,000 reagents; this is a random part of those that have a named target and a result. In the full data, about 2,100 (10%) got an active call. 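Raw plate signals without normalisation; calls rest on control-based scores that were not deposited; replicate 2 separates called from uncalled poorly.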 Names joined by + are all predicted targets of the reagent. No sequences are given here. The record does not give: the amount of reagent, the time to read-out.

Aim: 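Knock-downs that reduce calcium influx once internal stores are emptied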 (primary screen)
System: Drosophila S2R+ cells
Knock-down reagent: long dsRNA against Drosophila genes
Conditions: thapsigargin (2 µM) in calcium-free buffer to empty internal stores, then 2 mM calcium added back
Read-out: 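Fluo-4 signal in 384-well plates read on a FLIPR after thapsigargin (2 µM, calcium-free) store depletion and 2 mM calcium add-back; unnormalised mean endpoint per well; screen run twice, selected wells retested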
Scale: calcium signal and retest calcium signal: higher = more calcium entry after store depletion
Hit rule: 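Knock-downs counted as hits when calcium entry dropped relative to STIM1 positive and Rho1 negative controls present on each plate; roughly 1500 genes called, with reductions of differing size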
Calls: active = called as lowering calcium entry; inactive = not called

The first 3 entries, to show the layout:
Target gene | amplicon | calcium signal, replicate 1 | calcium signal, replicate 2 | retest calcium signal, replicate 1 | retest calcium signal, replicate 2 | Outcome
Dus1 (Dihydrouridine synthase 1) | DRSC00623 | 139 | 135 | – | – | inactive
CG10098 | DRSC12509 | 119 | 136 | – | – | inactive
LRP1 (LDL receptor protein 1) | DRSC07238 | 151 | 140 | – | – | inactive

Main list, from the start:
Target gene | amplicon | calcium signal, replicate 1 | calcium signal, replicate 2 | retest calcium signal, replicate 1 | retest calcium signal, replicate 2 | Outcome
Dus1 (Dihydrouridine synthase 1) | DRSC00623 | 139 | 135 | – | – | inactive
CG10098 | DRSC12509 | 119 | 136 | – | – | inactive
LRP1 (LDL receptor protein 1) | DRSC07238 | 151 | 140 | – | – | inactive
Pdzd8 (PDZ domain containing 8) | DRSC19355 | 128 | 79.7 | – | – | inactive
CG30379 | DRSC05070 | 99.4 | 133 | – | – | inactive
Osi10b (Osiris 10b) | DRSC12279 | 112 | 88.1 | – | – | inactive
BaraA1 + BaraA2 | DRSC05417 | 119 | 134 | – | – | inactive
alphaTry (alphaTrypsin) | DRSC07577 | 104 | 231 | – | – | inactive
CG17571 | DRSC01768 | 83.7 | 4968 | – | – | inactive
CG17571 | DRSC03755 | 206 | 122 | – | – | inactive
CG12118 | DRSC17813 | 96.6 | 97 | – | – | inactive
Cyt-c-d (Cytochrome c distal) | DRSC03309 | 113 | 130 | – | – | inactive
FucTC (alpha1,3-fucosyltransferase C) | DRSC20966 | 105 | 11376 | – | – | inactive
Smyd5 (SET and MYND domain containing, class 5) | DRSC15483 | 129 | 189 | – | – | inactive
rec (recombination-defective) | DRSC14998 | 138 | 122 | – | – | inactive
rec (recombination-defective) | DRSC15656 | 93.3 | 133 | – | – | inactive
CG13599 | DRSC14602 | 146 | 130 | – | – | inactive
se (sepia) | DRSC10713 | 70.9 | 64.4 | – | – | inactive
Bacc (Bacchus) | DRSC00735 | 184 | 156 | – | – | inactive
CG6034 | DRSC10572 | 114 | 133 | – | – | inactive
Atg101 (Autophagy-related 101) | DRSC20020 | 150 | 121 | – | – | inactive
Su(z)12 | DRSC11293 | 90.3 | 97.3 | – | – | inactive
Hex-t2 (Hexokinase testis 2) | DRSC22517 | 55.8 | 81.9 | – | – | active
Mst98Ca (Male-specific RNA 98Ca) | DRSC16749 | 61 | 56.9 | 110 | 130 | active
bard | DRSC14796 | 123 | 144 | – | – | inactive
Vha100-1 (Vacuolar H[+] ATPase 100kD subunit 1) | DRSC14148 | 64.9 | 66.5 | – | – | active
TTLL1B (Tubulin tyrosine ligase-like 1B) | DRSC08594 | 93.2 | 75.7 | – | – | inactive
fd3F (forkhead domain 3F) | DRSC17843 | 114 | 77.4 | – | – | inactive
fd3F (forkhead domain 3F) | DRSC23032 | 147 | 183 | – | – | inactive
CG13579 | DRSC04215 | 187 | 186 | – | – | inactive
Pdi (Protein disulfide isomerase) | DRSC11250 | 88.7 | 168 | – | – | inactive
CG16798 | DRSC02517 | 186 | 136 | – | – | inactive
PolE1 (DNA polymerase epsilon subunit 1) | DRSC16112 | 195 | 283 | – | – | inactive
Golgin104 (Golgin 104) | DRSC10459 | 109 | 94.7 | – | – | inactive
IA-2 (IA-2 protein tyrosine phosphatase) | DRSC00304 | 127 | 205 | 80.6 | 153 | inactive
IA-2 (IA-2 protein tyrosine phosphatase) | DRSC00652 | 127 | 209 | – | – | inactive
IA-2 (IA-2 protein tyrosine phosphatase) | DRSC23335 | 104 | 152 | – | – | inactive
wor (worniu) | DRSC03637 | 143 | 99.4 | – | – | inactive
CG42671 | DRSC09093 | 87.7 | 123 | – | – | inactive
CG42671 | DRSC10321 | 91.8 | 117 | – | – | inactive
CG31639 | DRSC00910 | 104 | 148 | – | – | inactive
l(2)k01209 (lethal (2) k01209) | DRSC06889 | 181 | 160 | – | – | inactive
Npc2b (Niemann-Pick type C-2b) | DRSC15464 | 163 | 196 | – | – | inactive
Obp99c (Odorant-binding protein 99c) | DRSC16262 | 160 | 224 | – | – | inactive
CG12375 | DRSC02163 | 163 | 204 | – | – | inactive
Unr (Upstream of N-ras) | DRSC10761 | 96.5 | 87.9 | – | – | inactive
Unr (Upstream of N-ras) | DRSC22959 | 119 | 87.3 | – | – | inactive
Ccs (Copper chaperone for superoxide dismutase) | DRSC06692 | 111 | 167 | – | – | inactive
CG2533 | DRSC19855 | 117 | 91 | – | – | inactive
Lcp65Ag3 (Larval cuticle protein) | DRSC10345 | 71.5 | 42.5 | 112 | 82.9 | active
CG34161 | DRSC01132 | 230 | 136 | – | – | inactive
PrBP (Prenyl-binding protein) | DRSC03189 | 204 | 145 | – | – | inactive
DJ-1alpha | DRSC07005 | 76.9 | 222 | – | – | inactive
CG13047 | DRSC09928 | 101 | 126 | – | – | inactive
GILT3 (Gamma-interferon-inducible lysosomal thiol reductase 3) | DRSC14672 | 63.2 | 119 | – | – | active
CG17350 | DRSC02611 | 180 | 102 | – | – | inactive
CG33552 | DRSC01551 | 74.6 | 154 | – | – | inactive
CG17777 | DRSC18137 | 131 | 120 | – | – | inactive
CG8314 | DRSC07144 | 120 | 89 | – | – | inactive
CG12491 + CG34105 | DRSC04008 | 80 | 110 | – | – | inactive
CG12491 + CG34105 | DRSC04124 | 106 | 168 | – | – | inactive
Edem2 (ER degradation enhancer, mannosidase alpha-like 2) | DRSC02877 | 127 | 105 | – | – | inactive
CG17349 | DRSC02610 | 183 | 93 | – | – | inactive
CAH5 (Carbonic anhydrase 5) | DRSC15372 | 220 | 134 | – | – | inactive
Mayo | DRSC14300 | 137 | 154 | – | – | inactive
CG11379 | DRSC18629 | 82.1 | 115 | – | – | inactive
CG8237 | DRSC07119 | 144 | 163 | – | – | inactive
CG43318 | DRSC14999 | 144 | 161 | – | – | inactive
Non1 (Novel nucleolar protein 1) | DRSC05954 | 170 | 104 | – | – | inactive
hyx (hyrax) | DRSC14462 | 114 | 121 | – | – | inactive
dbr (debra) | DRSC00274 | 90.7 | 123 | – | – | inactive
CG11159 | DRSC06050 | 88.9 | 114 | – | – | inactive
Exo84 (Exocyst 84) | DRSC15965 | 234 | 143 | – | – | inactive
Arts + Apl | DRSC10349 | 113 | 150 | – | – | inactive
CIAPIN1 (Cytokine induced apoptosis inhibitor 1) | DRSC03559 | 66.3 | 159 | – | – | active
mTor (mechanistic Target of rapamycin) | DRSC02811 | 106 | 95.5 | – | – | inactive
NimB5 (Nimrod B5) | DRSC01885 | 121 | 174 | – | – | inactive
CG15878 | DRSC08486 | 72.2 | 93 | – | – | inactive
REPTOR (Repressed by TOR) | DRSC14626 | 168 | 183 | – | – | inactive
homer | DRSC03547 | 79.7 | 112 | – | – | inactive
CG42597 | DRSC03681 | 89.8 | 5414 | – | – | inactive
Acp63F (Accessory gland protein 63F) | DRSC08137 | 137 | 81.6 | – | – | inactive
mbl (muscleblind) | DRSC05657 | 154 | 146 | 10664 | 112 | inactive
mbl (muscleblind) | DRSC06449 | 120 | 123 | – | – | inactive
mbl (muscleblind) | DRSC07651 | 228 | 185 | – | – | inactive
mbl (muscleblind) | DRSC23188 | 115 | 126 | – | – | inactive
CG14857 | DRSC14981 | 122 | 188 | – | – | inactive
Amun | DRSC19847 | 91.8 | 80.9 | – | – | inactive
CG13407 | DRSC14583 | 231 | 175 | – | – | inactive
ftz-f1 (ftz transcription factor 1) | DRSC11347 | 62.5 | 102 | – | – | inactive
ng1 (new glue 1) | DRSC18802 | 81.2 | 115 | – | – | inactive
Hex-C (Hexokinase C) | DRSC07079 | 110 | 195 | – | – | inactive
ENGase (Endo-beta-N-acetylglucosaminidase) | DRSC19952 | 155 | 172 | – | – | inactive
ENGase (Endo-beta-N-acetylglucosaminidase) | DRSC19953 | 100 | 104 | – | – | inactive
vap (vacuolar peduncle) | DRSC20275 | 120 | 116 | – | – | inactive
Twdlalpha (Tweedlealpha) | DRSC19914 | 102 | 171 | – | – | inactive
cv-c (crossveinless c) | DRSC14969 | 80.7 | 116 | – | – | inactive
cv-c (crossveinless c) | DRSC14970 | 93.7 | 114 | – | – | inactive
cv-c (crossveinless c) | DRSC14971 | 102 | 95.9 | – | – | inactive
cv-c (crossveinless c) | DRSC14972 | 99.7 | 113 | – | – | inactive
cv-c (crossveinless c) | DRSC14973 | 127 | 118 | – | – | inactive
cv-c (crossveinless c) | DRSC16428 | 104 | 134 | – | – | inactive
cv-c (crossveinless c) | DRSC23199 | 125 | 131 | – | – | inactive
CG9175 | DRSC03153 | 109 | 268 | – | – | inactive
CG3108 | DRSC18280 | 130 | 78.7 | – | – | inactive
CG9948 | DRSC11104 | 92.9 | 98.2 | – | – | inactive
